Results are given in words; binding and its absence hold for the method and conditions named. Binding seen in cells or lysates may run through a third protein. Some results given as binding are weak or reduced against the parent protein; the word gives no strength.

The chains behind the UniProt entries cited, without tags or fusion partners. Where a name states a change or a piece, a line headed by the entry shows the natural chain unless it says otherwise. A line that says so, or that is headed by a name, gives the form on record, which may keep a tag or linker.
MDM2/HDM2 (Q00987-11, form named): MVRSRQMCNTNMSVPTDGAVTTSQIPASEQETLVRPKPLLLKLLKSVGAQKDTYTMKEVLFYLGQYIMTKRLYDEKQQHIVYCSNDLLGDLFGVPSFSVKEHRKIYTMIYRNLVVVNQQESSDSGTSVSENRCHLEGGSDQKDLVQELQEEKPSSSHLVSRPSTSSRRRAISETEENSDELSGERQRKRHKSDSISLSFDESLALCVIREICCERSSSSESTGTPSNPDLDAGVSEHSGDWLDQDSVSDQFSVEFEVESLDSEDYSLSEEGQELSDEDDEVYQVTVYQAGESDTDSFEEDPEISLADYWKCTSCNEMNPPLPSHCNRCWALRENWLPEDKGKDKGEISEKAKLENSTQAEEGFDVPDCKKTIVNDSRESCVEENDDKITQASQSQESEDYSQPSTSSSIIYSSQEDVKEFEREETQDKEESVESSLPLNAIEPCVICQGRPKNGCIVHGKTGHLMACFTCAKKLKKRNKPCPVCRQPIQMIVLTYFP
UniProt P03372: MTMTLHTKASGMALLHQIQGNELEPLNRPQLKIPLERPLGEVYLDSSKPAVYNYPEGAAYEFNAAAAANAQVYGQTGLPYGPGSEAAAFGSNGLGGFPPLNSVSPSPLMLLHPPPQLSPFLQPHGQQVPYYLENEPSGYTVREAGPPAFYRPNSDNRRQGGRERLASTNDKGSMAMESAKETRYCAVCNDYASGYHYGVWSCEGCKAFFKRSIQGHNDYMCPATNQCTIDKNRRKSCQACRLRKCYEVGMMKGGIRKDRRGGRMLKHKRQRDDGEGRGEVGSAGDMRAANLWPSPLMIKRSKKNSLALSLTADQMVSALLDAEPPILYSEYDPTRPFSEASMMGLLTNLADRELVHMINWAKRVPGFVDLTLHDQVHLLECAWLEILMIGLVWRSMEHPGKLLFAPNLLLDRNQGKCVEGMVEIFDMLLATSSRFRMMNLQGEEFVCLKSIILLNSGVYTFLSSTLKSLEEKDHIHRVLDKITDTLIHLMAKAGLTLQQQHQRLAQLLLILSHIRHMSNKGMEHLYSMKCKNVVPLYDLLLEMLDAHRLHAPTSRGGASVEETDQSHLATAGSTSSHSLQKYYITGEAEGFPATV

What all share (test): co-IP; endogenous proteins in ZR-75-1 and MCF7 lysates (20 mM Tris pH 8.0, 150 mM NaCl, 5 mM MgCl2, 0.5% NP40); 2.5 mg precleared lysate with 6 μg antibody overnight at 4°C, protein G agarose; western blot
In general terms: Immunoblotting shows a protein as a band on a membrane.

Assay [1] addresses T1, MDM4/MDMX/HDMX (human (endogenous in ZR-75-1, MCF7 and patient breast tumor)) (UniProt O15151).
T1 sequence: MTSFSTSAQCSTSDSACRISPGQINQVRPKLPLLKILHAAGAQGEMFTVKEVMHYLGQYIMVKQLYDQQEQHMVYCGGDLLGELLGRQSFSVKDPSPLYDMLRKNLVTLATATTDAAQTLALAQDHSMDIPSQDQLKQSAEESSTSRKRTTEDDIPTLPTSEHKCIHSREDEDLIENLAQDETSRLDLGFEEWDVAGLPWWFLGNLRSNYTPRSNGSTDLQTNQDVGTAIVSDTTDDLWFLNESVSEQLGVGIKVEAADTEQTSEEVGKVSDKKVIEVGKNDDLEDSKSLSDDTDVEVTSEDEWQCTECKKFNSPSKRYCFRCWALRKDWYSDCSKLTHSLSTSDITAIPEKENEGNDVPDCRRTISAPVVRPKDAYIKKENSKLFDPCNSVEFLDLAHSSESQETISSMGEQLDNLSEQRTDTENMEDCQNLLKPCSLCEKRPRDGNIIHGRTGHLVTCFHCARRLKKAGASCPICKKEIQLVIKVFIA

In assay [2] the target is MDM2/HDM2 (human (endogenous in ZR-75-1 and MCF7)) (UniProt Q00987).
Assay [3] addresses Estrogen receptor alpha/estrogen receptor 1 (human (endogenous in ZR-75-1, MCF7 and patient breast tumor)) (UniProt P03372).

Take “Estrogen receptor alpha/estrogen receptor 1 (from UniProt P03372-1 1-595)”: the binding entry in assay [1] and in assay [2] was “binds” each time.

For the substance “MDM2/HDM2 (from UniProt Q00987-11 1-497)”, in assay [3], the binding result is listed as “binds”.

Values taken from PMC4941297.
